Measurements as given in patent US12364771B2 (ProLynx LLC, priority 2019, dated 2025).

Assay: general procedure: Fmoc solid-phase peptide synthesis; Rink amide resin
Conditions: whole synthesis, 280 nm

## N^α-{4-Azido-3,3-dimethyl-1-[(N,N-dimethyl)aminosulfonyl]-2-butyloxycarbonyl}-[Gln^28]exenatide
  final HPLC purity: 90.0%
